Results deposited as PubChem BioAssay AID686943 (Drosophila RNAi Screening Center, 2013).
Test: 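Knockdowns that increase or decrease active ERK after insulin receptor stimulation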 (primary screen). Cells: Drosophila S2R+ haemocyte-like cells expressing YFP-tagged ERK (Rolled). Reagent: long dsRNA against Drosophila genes. Conditions: insulin stimulation versus unstimulated cells; dose and duration not given. Measured: 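Antibody staining for doubly phosphorylated ERK divided by ERK-YFP signal, as plate z-scores, in insulin-treated and untreated cells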. Reading the numbers: replicate 1, z-score of dpERK with insulin: higher = more active ERK per ERK-YFP after insulin.
The screen tested about 23,000 reagents; below is a random part of those that have a named target and a result. 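Extra replicates exist only for a retested subset of genes; insulin dose and duration not given; both raised and lowered dpERK matter.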 Reagents against one gene are numbered here. A plus sign joins genes that one reagent is predicted to hit. Not all columns of the deposit are shown. No sequences are given here. Not stated in the record: the amount of reagent, the time to read-out.

| Target gene | reagent | replicate 1, z-score of dpERK with insulin |
| --- | --- | --- |
| CG4597 | 1 | -0.19 |
| CG42750 | 1 | -5.65 |
| CG42750 | 2 | 0.39 |
| CG42750 | 3 | 0.51 |
| CG42750 | 4 | 0.85 |
| CG3589 | 1 | 0.29 |
| CG14417 | 1 | 0.05 |
| BuGZ (Bub3 interacting GLEBS and Zinc finger domain protein) | 1 | -1.32 |
| BuGZ (Bub3 interacting GLEBS and Zinc finger domain protein) | 2 | -0.1 |
| TTLL4A (Tubulin tyrosine ligase-like 4A) | 1 | 0.39 |
| CG9839 | 1 | -0.72 |
| CG15408 | 1 | 0.84 |
| grk (gurken) | 1 | -0.17 |
| Pgam5-2 (Phosphoglycerate mutase 5-2) | 1 | -0.29 |
| CG17760 | 1 | 1.03 |
| CG14106 | 1 | -0.17 |
| CG34166 | 1 | 0.39 |
| CG42561 | 1 | -0.31 |
| Sras (severas) | 1 | 0.84 |
| CG11779 | 1 | 1.41 |
| CG1552 | 1 | 0.02 |
| Fmo-1 (Flavin-containing monooxygenase 1) | 1 | 0.43 |
| CG9590 | 1 | -0.17 |
| CG14246 | 1 | 1.27 |
| ocm (over compensating males) | 1 | 0.17 |
| CG13659 | 1 | 0.87 |
| Dop1R2 (Dopamine 1-like receptor 2) | 1 | 0.25 |
| Dop1R2 (Dopamine 1-like receptor 2) | 2 | 0.2 |
| CG42361 | 1 | -1.13 |
| CG5177 | 1 | -0.49 |
| CG32428 | 1 | -1.55 |
| CG32428 | 2 | 0.5 |
| kek3 (kekkon 3) | 1 | 0 |
| kek3 (kekkon 3) | 2 | 0.17 |
| scw (screw) | 1 | -0.49 |
| scw (screw) | 2 | 0.3 |
| CR33221 (pseudo) | 1 | 0.25 |
| Bhmt (Betaine-homocysteine S-methyltransferase) | 1 | 0.91 |
| CG18814 | 1 | 0.73 |
| CG30338 | 1 | -0.11 |
| CG13631 | 1 | 0.12 |
| mira (miranda) | 1 | -0.14 |
| CG5493 + CG5327 | 1 | 0.34 |
| h-cup (heineken-cup) | 1 | -0.86 |

Next part; the last 2 above are carried over.
| Target gene | reagent | replicate 1, z-score of dpERK with insulin |
| --- | --- | --- |
| CG5493 + CG5327 | 1 | 0.34 |
| h-cup (heineken-cup) | 1 | -0.86 |
| CG8620 | 1 | -0.29 |
| Lhr (Lethal hybrid rescue) | 1 | 1.56 |
| Neu2 (Neuroectoderm-expressed 2) | 1 | 1.53 |
| mop (myopic) | 1 | -0.04 |
| CG8750 | 1 | -1.12 |
| CG1999 | 1 | -0.61 |
| STUB1 (STIP1 homology and U-box containing protein 1) | 1 | -1.11 |
| lncRNA:bxd (bithoraxoid) | 1 | 0.5 |
| CG18745 | 1 | 0.5 |
| CG32248 | 1 | -0.09 |
| Ork1 (Open rectifier K[+] channel 1) | 1 | -0.2 |
| Der-1 (Derlin-1) | 1 | -0.62 |
| CG14835 | 1 | -0.32 |
| pirk (poor Imd response upon knock-in) | 1 | -0.3 |
| mad2 | 1 | 0.18 |
| CG5273 | 1 | 1.42 |
| Hey (Hairy/E(spl)-related with YRPW motif) | 1 | -4.23 |
| rux (roughex) | 1 | 0.24 |
| Dys (Dystrophin) | 1 | -1.54 |
| Dys (Dystrophin) | 2 | -0.31 |
| Dys (Dystrophin) | 3 | 1.38 |
| Dys (Dystrophin) | 4 | 0.25 |
| Dys (Dystrophin) | 5 | 0.06 |
| Dys (Dystrophin) | 6 | 0.64 |
| Dys (Dystrophin) | 7 | 0.46 |
| CG42808 | 1 | -0.02 |
| CG14932 | 1 | -1.99 |
| CG14367 | 1 | 0.31 |
| CG2681 | 1 | 2.36 |
